The experiment has as its target HA tagged 1-230 ATG16L1 truncation mutant (UniProt Q8C0J2). Briefly: affinity purification with mass spectrometry; lysate of BV2 cells stably expressing HA-ATG16L1 1-230, mock treated or infected with 10 MOI of MNV for 10 h, pulled down on HA beads; partners identified by mass spectrometry.

By UniProt entry, the sequences of proteins in these tests, tags left out. Where a name states a change or a piece, a line headed by the entry shows the natural chain unless it says otherwise. Residues count along the entry.
UniProt Q8C0J2, residues 1-230: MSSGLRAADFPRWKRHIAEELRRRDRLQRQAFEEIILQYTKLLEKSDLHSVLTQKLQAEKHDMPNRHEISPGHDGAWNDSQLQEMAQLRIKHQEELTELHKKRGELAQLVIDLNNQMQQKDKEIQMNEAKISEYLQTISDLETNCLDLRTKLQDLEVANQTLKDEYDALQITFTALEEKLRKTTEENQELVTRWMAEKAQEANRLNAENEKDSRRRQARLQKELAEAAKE
UniProt O70133: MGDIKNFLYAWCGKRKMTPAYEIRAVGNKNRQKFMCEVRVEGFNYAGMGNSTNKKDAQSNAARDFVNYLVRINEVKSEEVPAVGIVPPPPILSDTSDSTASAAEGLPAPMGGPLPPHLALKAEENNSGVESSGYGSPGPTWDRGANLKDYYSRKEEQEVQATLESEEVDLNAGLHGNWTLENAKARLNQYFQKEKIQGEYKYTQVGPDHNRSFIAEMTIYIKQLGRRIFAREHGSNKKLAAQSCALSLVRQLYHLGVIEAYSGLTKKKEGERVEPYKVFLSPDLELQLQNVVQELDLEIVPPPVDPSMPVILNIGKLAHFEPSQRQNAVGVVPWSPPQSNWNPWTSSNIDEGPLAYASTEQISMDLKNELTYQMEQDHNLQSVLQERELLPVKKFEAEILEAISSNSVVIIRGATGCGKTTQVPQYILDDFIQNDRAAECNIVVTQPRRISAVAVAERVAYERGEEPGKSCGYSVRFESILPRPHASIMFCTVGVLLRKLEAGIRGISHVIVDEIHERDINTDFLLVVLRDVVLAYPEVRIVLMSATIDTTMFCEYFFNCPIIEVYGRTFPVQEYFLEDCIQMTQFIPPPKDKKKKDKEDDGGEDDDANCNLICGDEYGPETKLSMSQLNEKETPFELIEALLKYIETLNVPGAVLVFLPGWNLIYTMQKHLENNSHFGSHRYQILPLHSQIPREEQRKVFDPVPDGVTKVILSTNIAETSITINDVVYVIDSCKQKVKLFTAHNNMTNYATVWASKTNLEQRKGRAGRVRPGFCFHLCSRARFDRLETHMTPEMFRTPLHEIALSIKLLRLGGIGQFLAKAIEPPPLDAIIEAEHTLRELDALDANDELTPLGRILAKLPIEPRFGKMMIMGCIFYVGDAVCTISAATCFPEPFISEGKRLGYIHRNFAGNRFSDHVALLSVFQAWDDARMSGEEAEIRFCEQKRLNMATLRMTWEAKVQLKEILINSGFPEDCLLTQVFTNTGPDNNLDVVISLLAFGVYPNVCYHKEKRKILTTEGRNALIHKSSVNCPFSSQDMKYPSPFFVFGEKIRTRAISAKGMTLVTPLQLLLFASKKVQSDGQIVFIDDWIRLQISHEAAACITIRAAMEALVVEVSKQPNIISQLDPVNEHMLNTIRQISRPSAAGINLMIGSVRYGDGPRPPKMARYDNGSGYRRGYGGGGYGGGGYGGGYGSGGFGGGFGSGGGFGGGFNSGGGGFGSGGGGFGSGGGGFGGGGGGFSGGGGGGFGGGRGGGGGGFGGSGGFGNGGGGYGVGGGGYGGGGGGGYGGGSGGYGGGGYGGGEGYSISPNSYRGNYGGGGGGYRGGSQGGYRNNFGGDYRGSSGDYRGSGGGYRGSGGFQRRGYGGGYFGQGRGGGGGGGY

Results are given in words; binding and its absence hold for the method and conditions named. Binding seen in cells or lysates may run through a third protein. These calls come from enrichment with a bait or labelling near it, and not all partners need be listed.

For “DHX9 (endogenous, BV2 cells) (from UniProt O70133 1-1380)”, the binding result is reported as “binds”.

B1: CAPRIN1 (endogenous, BV2 cells) (protein, UniProt Q60865 1-707)
chain: MPSATSHSGSGSKSSGPPPPSGSSGSEAAAGAAAPASQHPATGTGAVQTEAMKQILGVIDKKLRNLEKKKGKLDDYQERMNKGERLNQDQLDAVSKYQEVTNNLEFAKELQRSFMALSQDIQKTIKKTARREQLMREEAEQKRLKTVLELQYVLDKLGDDDVRTDLKQGLSGVPILSEEELSLLDEFYKLVDPERDMSLRLNEQYEHASIHLWDLLEGKEKPVCGTTYKALKEIVERVFQSNYFDSTHNHQNGLCEEEEAASAPTVEDQVAEAEPEPAEEYTEQSEVESTEYVNRQFMAETQFSSGEKEQVDEWTVETVEVVNSLQQQPQAASPSVPEPHSLTPVAQSDPLVRRQRVQDLMAQMQGPYNFIQDSMLDFENQTLDPAIVSAQPMNPTQNMDMPQLVCPQVHSESRLAQSNQVPVQPEATQVPLVSSTSEGYTASQPLYQPSHATEQRPQKEPMDQIQATISLNTDQTTASSSLPAASQPQVFQAGTSKPLHSSGINVNAAPFQSMQTVFNMNAPVPPANEPETLKQQSQYQATYNQSFSSQPHQVEQTELQQDQLQTVVGTYHGSQDQPHQVPGNHQQPPQQNTGFPRSSQPYYNSRGVSRGGSRGARGLMNGYRGPANGFRGGYDGYRPSFSNTPNSGYSQSQFTAPRDYSGYQRDGYQQNFKRGSGQSGPRGAPRGRGGPPRPNRGMPQMNTQQVN
Consider B1, for which the binding entry is “binds”.

For the origin of these results see article PMC10294620.
